Experimental data reported in patent US20090208445A1, “Compositions Comprising Eucalyptol And/Or Ocimene And/Or Farnesol For Use As Bumblebee Pheromones” (QUEEN MARY & WESTFIELD COLLEGE, priority 2005, published 2009).

How the values were obtained:
[1] = HS-SPME GC-MS analysis of air samples from the bumblebee nest box before and during foraging; parameters: species or system Bombus terrestris; settings: for Amount of volatiles, Nest before foraging / Amount of volatiles, Nest during foraging: nest box airspace, average +/- SE, n=10; for Amount of volatiles (substances also evaluated): all samples evaluated (nest box and tergites), LOQ: limit of quantification
[2] = HS-SPME GC-MS analysis of tergites of foragers before and during foraging; parameters: species or system Bombus terrestris; settings: average +/- SE; for Amount of volatiles, Tergites during foraging: tergites of 5 foragers just returned from the feeder; for Amount of volatiles, Tergites before foraging: tergites of 5 foragers not offered food

Cc1ccccc1 [Toluene]
Amount of volatiles, Nest before foraging [1]: 920.8 ± 114.3 nanograms | Amount of volatiles, Nest during foraging [1]: 912.1 ± 353.3 nanograms | Amount of volatiles, Tergites during foraging [2]: 624.4 ± 270.6 nanograms | Amount of volatiles, Tergites before foraging [2]: 453.2 ± 143.4 nanograms

Cc1ccccc1C [o-xylene]
Amount of volatiles (substances also evaluated) [1]: < LOQ

CCCCOC(=O)c1ccccc1C(=O)OCCCC [dibuthyl phthalate]
Amount of volatiles (substances also evaluated) [1]: < LOQ

COc1ccc(C=O)cc1 [p-anisaldehyde]
Amount of volatiles (substances also evaluated) [1]: < LOQ

C=CC(C)(O)CCC=C(C)C (stereo not drawn) [Linalool]
Amount of volatiles, Nest before foraging [1]: 554.1 ± 242.7 nanograms | Amount of volatiles, Nest during foraging [1]: 788 ± 237.1 nanograms | Amount of volatiles, Tergites during foraging [2]: 160.0 ± 149.1 nanograms | Amount of volatiles, Tergites before foraging [2]: 169.4 ± 170.3 nanograms

C=CCc1ccc(O)c(OC)c1 [eugenol]
Amount of volatiles (substances also evaluated) [1]: < LOQ

C=CC(=C)CCC=C(C)C [Myrcene]
Amount of volatiles, Nest before foraging [1]: 991.3 ± 650.7 nanograms | Amount of volatiles, Nest during foraging [1]: 976.5 ± 471.2 nanograms | Amount of volatiles, Tergites during foraging [2]: 627.4 ± 241.7 nanograms | Amount of volatiles, Tergites before foraging [2]: 546.4 ± 126.8 nanograms

CC(=O)OC/C=C(\C)CCC=C(C)C [geranyl acetate]
Amount of volatiles (substances also evaluated) [1]: < LOQ

CC12CCC(CC1)C(C)(C)O2 [Eucalyptol, 1,3,3-Trimethyl-2-oxabicyclo[2.2.2.]octane]
Amount of volatiles, Nest before foraging [1]: <LOQ** | Amount of volatiles, Nest during foraging [1]: 799.2 ± 227.9 nanograms | Amount of volatiles, Tergites during foraging [2]: 622.4 ± 134.4 nanograms | Amount of volatiles, Tergites before foraging [2]: <LOQ***

OCC=Cc1ccccc1 [cinnamyl alcohol]
Amount of volatiles (substances also evaluated) [1]: < LOQ

CC1=CCC2C(C1)C2(C)C (stereo not drawn) [3-carene]
Amount of volatiles (substances also evaluated) [1]: < LOQ

c1ccccc1 [Benzene]
Amount of volatiles (substances also evaluated) [1]: < LOQ

CC(C)=CCCC(C)=CC=O [citral]
Amount of volatiles (substances also evaluated) [1]: < LOQ

CC(C)=CCC/C(C)=C/C(=O)O [geranic acid]
Amount of volatiles (substances also evaluated) [1]: < LOQ

c1ccc2[nH]ccc2c1 [indole]
Amount of volatiles (substances also evaluated) [1]: < LOQ

COc1ccc(OC)c(OC)c1 [1,2,4-trimethoxybenzene]
Amount of volatiles (substances also evaluated) [1]: < LOQ

COc1ccc(OC)cc1 [1,4-dimethoxybenzene]
Amount of volatiles (substances also evaluated) [1]: < LOQ

O=CC=Cc1ccccc1 [cinnamaldehyde]
Amount of volatiles (substances also evaluated) [1]: < LOQ
